A: 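Methionyl-tRNA synthetase (putative), Leishmania donovani (UniProt E9BF75). Primary screen of methionyl-tRNA synthetase; the read-out is not stated. The test concentration is not given. The values are filed as inhibition. Of about 68,000 compounds tested this way, about 24 (0.035%) reached 50% or more in at least one test.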
B: 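Assay on Mycobacterium tuberculosis, filed only as a heat shock assay from Cornell; the read-out is not stated. The concentration is filed as 10 mM, unlikely as a test dose, so the dose is not known. Higher reads as stronger inhibition (inferred: compounds with an IC50 in retests scored well above the rest). Of about 69,000 compounds tested this way, about 930 (1.4%) reached 50% or more in at least one test.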

The chains behind the UniProt entries cited, without tags or fusion partners.
UniProt E9BF75, entry or part of it: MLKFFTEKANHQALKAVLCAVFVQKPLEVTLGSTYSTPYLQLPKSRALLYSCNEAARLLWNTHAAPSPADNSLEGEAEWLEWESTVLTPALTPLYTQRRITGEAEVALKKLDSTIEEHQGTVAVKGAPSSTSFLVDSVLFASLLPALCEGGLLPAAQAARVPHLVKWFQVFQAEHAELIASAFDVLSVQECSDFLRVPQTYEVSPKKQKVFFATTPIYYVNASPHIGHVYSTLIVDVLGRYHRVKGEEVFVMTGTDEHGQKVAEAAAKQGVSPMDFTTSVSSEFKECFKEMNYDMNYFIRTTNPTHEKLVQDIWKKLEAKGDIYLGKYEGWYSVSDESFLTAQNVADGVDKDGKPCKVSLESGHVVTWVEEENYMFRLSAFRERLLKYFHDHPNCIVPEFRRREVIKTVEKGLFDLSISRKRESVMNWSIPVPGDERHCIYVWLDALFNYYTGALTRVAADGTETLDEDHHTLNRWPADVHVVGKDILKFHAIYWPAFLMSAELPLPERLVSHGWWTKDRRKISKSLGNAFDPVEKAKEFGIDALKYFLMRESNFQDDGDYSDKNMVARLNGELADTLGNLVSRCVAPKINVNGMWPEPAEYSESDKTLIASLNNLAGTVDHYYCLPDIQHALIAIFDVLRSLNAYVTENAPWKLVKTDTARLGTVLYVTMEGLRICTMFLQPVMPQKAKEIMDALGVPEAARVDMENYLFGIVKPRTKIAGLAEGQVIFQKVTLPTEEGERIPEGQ

All values are in %.
The record does not define 0% and 100%; most values in the screen are far below 50% and negative numbers occur (in some assays of this library far below -100).
The compounds are a random part of those screened.
A dash means the value is not listed here; it may have been measured.

compound,A,B
CC(=O)NCC(=O)N1Cc2nccn2CC(COc2cccnc2)C1.O=C(O)C(F)(F)F (stereo not given),-,-35.06%
Cc1ccc(C(=O)NCC(C)Cn2cccn2)c(=O)[nH]1 (stereo not given),8.791%,-7.791%
c1cncc(CC2CN(c3cccnc3)CCO2)c1 (stereo not given),5.788%,1.831%
Cc1ccc(C(=O)N2CCCC(N)CC2)cc1N1CCNC1=O (stereo not given),7.821%,9.513%
CCOc1cc(CNc2nnn(C)n2)ccc1OCc1ccc(Cl)cc1,0.2208%,21.58%
CN(Cc1cccnc1)C1CC2(CCN(c3ncccn3)CC2)C1.O=C(O)C(F)(F)F.O=C(O)C(F)(F)F,-,-13.22%
O=S(=O)(C1CC1)N1CCc2ncnc(N3CCOCC3)c2CC1,5.865%,5.009%
O=C(c1ccc(N2CCCC2)nc1)N1CCCC(c2nccs2)C1 (stereo not given),17.56%,-7.152%
CN(Cc1cnn(C)c1)C(=O)c1ccc(=O)n(C)n1,18.31%,13.44%
CN1Cc2ccccc2CC2(CCN(c3ncc(F)cn3)CC2)C1=O,10.87%,-8.418%
Cc1cccc(CN2CCC(C3Nc4ccccc4S(=O)(=O)N3)CC2)n1 (stereo not given),15.53%,-67.5%
CCN(Cc1noc(C2CCC2)n1)C(=O)CCc1cc2n(n1)CCNC2,3.377%,-23.65%
CCCSc1nn(CCCN(C)C)c2nc3sc(C)c(CC)c3c(=O)n12,18.7%,-34.52%
O=C(O)C(F)(F)F.[H][C@@]12CN(C)CCO[C@]1([H])CN(C(=O)COc1cccc(Cl)c1)C2,-,-35.45%
Cc1cc(CN2C[C@@H](C)[C@@]3(CCN(C)C3=O)C2)oc1C,7.609%,-
O=C(NC1CCC1)[C@@H]1CC[C@@H]2[C@@H](CCN2CCc2ccccc2)O1,12.32%,-
Cc1nccn1CCCN1CCC2(CCC(=O)N(CC3CC3)C2)CC1,-4.298%,-3.58%
CSc1ccc(C(CNC(=O)C2CC2)N2CCc3sccc3C2)cc1 (stereo not given),14.79%,17.44%
CC(C)C(=O)N1CCN(Cc2ccccn2)CC2(CC(=O)N(C)C2)C1 (stereo not given),15.71%,-
Cc1nc2c(c(NC3CC3)n1)CCN(C(=O)CCO)CC2.O=C(O)C(F)(F)F,-,4.726%
Nc1ncccc1C(=O)NCc1cccc(Cl)c1,5.143%,-26.62%
CCOc1ccc2oc(-c3cnn(C)c3C)c(O)c(=O)c2c1,6.266%,11.12%
CCC(=O)Nc1cccc(OCC(=O)N(C)Cc2ccon2)c1,1.6%,-27.82%
Cc1oc(-c2cccs2)nc1C(=O)N(C)C1(C#N)CCC1,22.06%,-18.59%
Cc1cc(=O)c2ccccc2n1CC1CCN(C(C)C)C1 (stereo not given),15.62%,1.019%
COCCN1C(=O)CO[C@H]2CN(Cc3c[nH]nc3-c3ccccc3)C[C@@H]21,13.36%,-
Cc1ncccc1O[C@H]1CCN(C(=O)Cc2cccs2)CC[C@@H]1O,12.94%,-0.4974%
[H][C@@]12CS(=O)(=O)C[C@]1([H])N(C(=O)CCc1ccccc1)CCN2C(=O)N(C)C,-,2.159%
Cn1cc(C(=O)N2CC[C@@H]3[C@@H]2CCN3Cc2cccc(C#N)c2)cn1,7.143%,-
O=C(Cc1c(F)cccc1Cl)Nc1cc(N2CCCC2)ncn1,3.107%,8.23%
CSc1cc2c(cc1NC(=O)NCc1ccco1)OCCO2,-,-1.232%
Cc1nnc(CN(C)C2CCCN(Cc3noc(C4CC4)n3)C2)o1 (stereo not given),8.571%,-4.888%
c1cnc(N2CCC(OCC3CCCCO3)CC2)nc1 (stereo not given),13.73%,2.239%
COC(=O)c1cccc(C(=O)N2CCN(c3ccc(Cl)cc3)CC2)n1,11.83%,2.718%
COCCc1nnc(NC(=O)CCCc2ccccc2)o1,15.6%,31.18%
[H][C@@]12CS(=O)(=O)C[C@]1([H])N(C(=O)CSc1ccccn1)CCN2CC=C(C)C,-,6.422%
CCc1nc2n(n1)CC(NCc1cnn(-c3ccccc3)n1)CC2 (stereo not given),16.71%,-2.449%
Cc1ccc(CN2CCc3c(CN(C)C)n[nH]c3C2)s1.O=C(O)C(F)(F)F.O=C(O)C(F)(F)F,-,-11.69%
COC(=O)[C@H](C)NC(=O)c1cnc(Cc2ccc(F)cc2)s1,15.38%,-7.112%
CCOC(=O)c1nnc2ccccc2c1N1CCOC(C)(C)C1,9.938%,-17.97%
Cc1cccc(N2CCC3(CCCN(C(=O)c4cccnc4)C3)CC2)n1,7.5%,-
CCOc1ccc(C#N)cc1NC(=O)N1CCC(n2cncn2)CC1,12.24%,10.3%
Cc1noc(C)c1CCC(=O)N1CCN(CCn2cncn2)CC1,5.31%,78.74%
O=C(Nc1ccc2ncccc2c1)C1CC(=O)N(Cc2ccccn2)C1 (stereo not given),9.922%,5.529%
CN(CC1(O)CCN(c2ccnc3ccncc23)CC1)C(=O)CCN,21.7%,-16.63%
Cc1csc(C(=O)N2CC(S(=O)(=O)C3CCCCC3)C2)c1,4.802%,11.99%
CN(C)c1nc(N2CCCC2)nc2c1CCN(Cc1nccn1C)CC2,4.106%,-
CC(C)NC(=O)N1CCC2(CCC(=O)N2CCN2CCCC2)CC1.O=C(O)C(F)(F)F,-,-7.519%
CN(C)C(=O)CN1CC[C@H]2CN(C3CCOCC3)C[C@@H]2C1=O,11.67%,-
Cc1c(NC(=O)NC2CCOCC2)cccc1C(=O)N1CCCC1,2.145%,-17.85%
Cc1cc(CN2C[C@@H](C)[C@@]3(CCN(CC(=O)N(C)C)C3=O)C2)oc1C.O=C(O)C(F)(F)F,-,-38.91%
CN(CC(=O)NC(C)(C)C)C(=O)C1CC(c2cccc(F)c2)=NO1 (stereo not given),9.851%,7.639%
COc1ccc(-n2nnnc2C2(NCc3ccco3)CCCCC2)cc1,15.92%,14.86%
CC(C)CCn1cc(C(=O)NC2CCS(=O)(=O)C2)c2ccccc2c1=O (stereo not given),12.9%,3.039%
Cc1cccc(CN2CCOCC3(CCN(C4CCOCC4)C3)C2)c1.O=C(O)C(F)(F)F.O=C(O)C(F)(F)F (stereo not given),-,-7.998%
Cc1c(NC(=O)C(C)N(C)C)c(=O)n(-c2ccccc2)n1C (stereo not given),-4.722%,35.99%
O=C(O)C(F)(F)F.O=C(c1ccoc1)N1CCOC2(COCCN(CC3CC3)C2)C1 (stereo not given),-,22.94%
O=C(NCc1ccco1)[C@@H]1CC[C@@H]2[C@@H](CCN2CC2CC2)O1,12.9%,-

Once more, the final 5:

| compound | A | B |
|---|---|---|
| `CC(C)CCn1cc(C(=O)NC2CCS(=O)(=O)C2)c2ccccc2c1=O` (stereo not given) | 12.9% | 3.039% |
| `Cc1cccc(CN2CCOCC3(CCN(C4CCOCC4)C3)C2)c1.O=C(O)C(F)(F)F.O=C(O)C(F)(F)F` (stereo not given) | - | -7.998% |
| `Cc1c(NC(=O)C(C)N(C)C)c(=O)n(-c2ccccc2)n1C` (stereo not given) | -4.722% | 35.99% |
| `O=C(O)C(F)(F)F.O=C(c1ccoc1)N1CCOC2(COCCN(CC3CC3)C2)C1` (stereo not given) | - | 22.94% |
| `O=C(NCc1ccco1)[C@@H]1CC[C@@H]2[C@@H](CCN2CC2CC2)O1` | 12.9% | - |

Measurements from “University of Dundee, Small-Polar-MMV Screening Library” (2021), ChEMBL document CHEMBL3988442.